Measurements reported in US12144864B2 (Regeneron Pharmaceuticals, Inc., priority 2018, dated 2024).

Test: peptide synthesis
[1] = whole synthesis, HPLC-MS, Agilent 1200 HPLC/6100 SQ, C18 columns, DAD (214 nm and 254 nm), ELSD

## (S)-4-(2-((1R,3R)-1-acetoxy-3-((2S,3S)—N-(4-(1-(carboxymethyl)-1H-1,2,3-triazol-4-yl)butyl)-3-methyl-2-((R)-1-methylpiperidine-2-carboxamido)pentanamido)-4-methylpentyl)thiazole-4-carboxamido)-5-(4-aminophenyl)-2,2-dimethylpentanoic acid
Late stage modification step, 2 steps
  step yield: 16% yield in 2 steps
[1]
  final HPLC purity: 97%

## (S)-4-(2-((1R,3R)-1-Acetoxy-3-((2S,3S)—N-(hex-5-yn-1-yl)-3-methyl-2-((R)-1-methylpiperidine-2-carboxamido)pentanamido)-4-methylpentyl)thiazole-4-carboxamido)-5-(4-aminophenyl-3,5-d2)-2,2-dimethylpentanoic acid
Coupling step
  step yield: 34%
[1]
  final HPLC purity: 98.9%

## (4S)-4-({2-[(1R,3R)-1-(Acetyloxy)-4-methyl-3-[(2S,3S)-3-methyl-2-{[(2R)-1-methylpiperidin-2-yl]formamido}-N-(pent-4-yn-1-yloxy)pentanamido]pentyl]-1,3-thiazol-4-yl}formamido)-5-(4-fluorophenyl)-2,2-dimethylpentanoic acid
Coupling step
  step yield: 40%
Coupling step, Method B
  final HPLC purity: >99%
[1]
  final HPLC purity: 100%

## (4S)-4-({2-[(1R,3R)-1-(Acetyloxy)-4-methyl-3-[(2S,3S)-3-methyl-2-{[(2R)-1-methylpiperidin-2-yl]formamido}-N-(pent-4-yn-1-yloxy)pentanamido]pentyl]-1,3-thiazol-4-yl}formamido)-5-(4-{2-[(2S)-2-{2-[2-(4-{2-azatricyclo[10.4.0.04,9]hexadeca-1(12),4(9),5,7,13,15-hexaen-10-yn-2-yl}-4-oxobutanamido)acetamido]acetamido}-3-phenylpropanamido]acetamido}phenyl)-2,2-dimethylpentanoic acid
Conjugation step
  conjugation yield: 80%
Conjugation step, HPLC-MS, Agilent 1200 HPLC/6100 SQ, C18 columns, DAD (214 nm and 254 nm), ELSD
  final HPLC purity: 95%

## 4-({2-[(1R,3R)-1-(Acetyloxy)-3-[(2S,3S)—N-hexyl-3-methyl-2-{[(2R)-1-methylpiperidin-2-yl]formamido}pentanamido]-4-methylpentyl]-1,3-thiazol-4-yl}formamido)-5-(4-amino-3-fluorophenyl)-2,2-dimethylpentanoic acid
Whole synthesis, HPLC-MS, Agilent 1200 HPLC/6100 SQ, C18 columns, DAD (214 nm and 254 nm), ELSD, run 1
  final HPLC purity: 95%
Whole synthesis, HPLC-MS, Agilent 1200 HPLC/6100 SQ, C18 columns, DAD (214 nm and 254 nm), ELSD, run 2
  final HPLC purity: >99%

## (4S)-4-({2-[(1R,3R)-1-(Acetyloxy)-4-methyl-3-[(2S,3S)-3-methyl-2-{[(2R)-1-methylpiperidin-2-yl]formamido}-N-(pent-4-yn-1-yloxy)pentanamido]pentyl]-1,3-thiazol-4-yl}formamido)-5-[4-(2-aminoacetamido)phenyl]-2,2-dimethylpentanoic acid
Late stage modification step
  step yield: 50%

## (S)-4-(2-((1R,3R)-3-((2S,3S)—N-(4-(1H-1,2,3-triazol-5-yl)butyl)-3-methyl-2-((R)-1-methylpiperidine-2-carboxamido)pentanamido)-1-acetoxy-4-methylpentyl)thiazole-4-carboxamido)-5-(4-aminophenyl)-2,2-dimethylpentanoic acid
Late stage modification step
  step yield: 35% yield
[1]
  final HPLC purity: 100%

## (2S,4R)-5-(4-hydroxyphenyl)-4-(2-((6R,8R)-8-isopropyl-9-((2S,3S)-3-methyl-2-((R)-1-methylpiperidine-2-carboxamido)pentanoyl)-4-oxo-5,10-dioxa-3,9-diazahexadecan-6-yl)thiazole-4-carboxamido)-2-methylpentanoic acid
Coupling step
  step yield: 15%
